Data as given in PubChem BioAssay AID1671195 (Yale University, 2021)
In all, the deposit lists about 22,000 reagents; this is a random part of them. About 1,510 of them (6.9%) count as active. 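Active includes knockdowns raising or lowering LDL uptake; positive z-scores mean more uptake, negative mean less.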 Unmarked entries are inactive.

Screen: 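Regulators of LDL receptor activity judged by labelled LDL uptake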 (primary screen)
System: human Huh7 hepatoma cells
Reagents: siRNA pool against human genes, 18 nM
Time to read-out: about 2 to 2.5 days of knockdown, then 8 h LDL uptake
Conditions: DiI-labelled LDL at 30 µg/ml for 8 h, in lipoprotein-deficient serum medium
Measurement: 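Fluorescent LDL signal imaged in cells, scaled to the plate median, robust z-score for each replicate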
Scale: robust z-score: higher = more LDL uptake after knockdown
Hit rule: 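a gene counts as active if at least two replicate z-scores exceed ±2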

| gene | robust z-score, replicate 1 | robust z-score, replicate 2 | robust z-score, replicate 3 |
| --- | --- | --- | --- |
| ATG14 (GeneID 22863) | 1.17 | 0.841 | 1.11 |
| LATS1 (GeneID 9113) | 0.502 | 2.2 | 0.99 |
| PANX3 (GeneID 116337) | -0.203 | 0.785 | 0.556 |
| FAM53C (GeneID 51307) | 0.166 | 0.803 | -0.209 |
| LINC00887 (GeneID 100131551) | -0.539 | -0.725 | -0.923 |
| CAMK4 (GeneID 814) | 0.465 | 0.681 | 1.04 |
| CATSPER4 (GeneID 378807) | -0.793 | -0.391 | -0.433 |
| VSIG10 (GeneID 54621) | 1.44 | 1.58 | 2.53 |
| FAM27E5 (GeneID 284123) | 0.2 | 1.02 | 0.819 |
| TICAM1 (GeneID 148022) | -1.11 | -0.652 | -1.37 |
| COX6A1 (GeneID 1337) | -1.33 | -1.55 | -1.56 |
| LINC02667 (GeneID 728327) | 0.329 | 0.235 | -0.476 |
| CSNK2B (GeneID 1460) | -0.883 | 0.0165 | -0.619 |
| SH2D5 (GeneID 400745) | 0.772 | 1.03 | 0.809 |
| GTF2E1 (GeneID 2960) | 0.429 | 0.44 | 0.302 |
| KLRC1 (GeneID 3821) | 0.552 | 0.28 | 1.27 |
| ZNF335 (GeneID 63925) | -0.186 | -0.331 | -0.404 |
| RPL34 (GeneID 6164) | -1.13 | -0.94 | -1.53 |
| PODXL (GeneID 5420) | -1.21 | 0.903 | -1.27 |
| RTP5 (GeneID 285093) | -0.0385 | -0.106 | -0.199 |
| HYDIN (GeneID 54768) | -1.34 | -2.93 | -1.44 |
| OR2B11 (GeneID 127623) | -0.607 | -0.33 | -0.407 |
| C3orf62 (GeneID 375341) | 1.81 | 2.01 | 1.9 |
| TPBG (GeneID 7162) | 0.134 | 1.21 | 0.896 |
| CINP (GeneID 51550) | -2.43 | -0.932 | -1.91 |
| IMMT (GeneID 10989) | -1.01 | -0.148 | -0.508 |
| NR4A1 (GeneID 3164) | 0.493 | 0.311 | -0.739 |
| BLTP1 (GeneID 84162) | -1.04 | -0.64 | -0.826 |
| PIGY (GeneID 84992) | -0.29 | -0.0581 | -0.594 |
| PPP1R35 (GeneID 221908) | 0.194 | 0.0427 | 0.00688 |
| OR56A1 (GeneID 120796) | 0.0362 | -0.449 | -0.948 |
| MIR1915HG (GeneID 399726) | 1.39 | 0.895 | 0.821 |
| TNFRSF10C (GeneID 8794) | 1.62 | 1.5 | 1.3 |
| GGH (GeneID 8836) | -0.389 | 0.259 | 0.00482 |
| ZDHHC24 (GeneID 254359) | 2.13 (active) | 2.04 | 2.67 |
| CLEC1B (GeneID 51266) | -0.615 | 0.108 | -0.416 |
| LOC400920 (retired record) (GeneID 400920) | -0.507 | -0.198 | -0.342 |
| FLJ43870 (retired record) (GeneID 400686) | -0.367 | 0.235 | 0.0127 |
| PRDX5 (GeneID 25824) | -0.798 | -0.71 | -0.887 |
| ZNF236 (GeneID 7776) | -0.242 | -1.82 | -1.16 |
| MRPS9 (GeneID 64965) | -0.37 | -0.738 | -0.603 |
| CMTM7 (GeneID 112616) | -0.0376 | 0.613 | 0.427 |
| ARMC1 (GeneID 55156) | -0.847 | -1.25 | -0.1 |
| TMEM119 (GeneID 338773) | 1.78 | 1.06 | 1.17 |
| LINC02899 (GeneID 439936) | -0.689 | 0.0721 | -0.192 |
| DPP3 (GeneID 10072) | 0.0378 | 0.362 | 0.324 |
| MMP11 (GeneID 4320) | -0.254 | 0.222 | 1.3 |
| CFTR (GeneID 1080) | -1.36 | -1.07 | -1.27 |
| TPGS2 (GeneID 25941) | -0.98 | -0.485 | -1.59 |
| PABPC1P4 (GeneID 341315) | 2.59 | 1.78 | 1.72 |
| DENND1C (GeneID 79958) | -0.634 | -0.853 | -0.717 |
| TMEM109 (GeneID 79073) | 2.07 (active) | 2.51 | 3.52 |
| SPPL2A (GeneID 84888) | 0.917 | 0.598 | 0.679 |
| FAM3A (GeneID 60343) | -1.84 | -1.74 | -2.11 |
| HSDL1 (GeneID 83693) | 0.744 | 0.573 | 0.68 |
| TTC23L (GeneID 153657) | 1.21 | -0.516 | 0.942 |
| ZNF569 (GeneID 148266) | -1.25 | -1.17 | -1.77 |
| KLHDC2 (GeneID 23588) | 1.27 | -0.086 | -0.143 |
| SLC37A3 (GeneID 84255) | 0.32 | 0.906 | 0.528 |
| CRIP2 (GeneID 1397) | -0.0972 | 0.29 | 0.246 |
| RASAL1 (GeneID 8437) | 0.309 | 0.769 | 0.879 |
| LOC441828 (retired record) (GeneID 441828) | -0.599 | 1.9 | 1.65 |
| SPACDR (GeneID 402573) | 1.64 | 1.6 | 1.25 |
| LOC401713 (retired record) (GeneID 401713) | 0.602 | 0.0403 | -0.0828 |
| GLT8D2 (GeneID 83468) | -0.118 | -0.229 | -0.362 |
| GNG3 (GeneID 2785) | 0.209 | 0.34 | 0.364 |
| PHF11 (GeneID 51131) | 1.23 | 0.807 | 1.03 |
| MYOCD (GeneID 93649) | -1.07 | -1.12 | -0.803 |

Reformatted: entries from further up
{"gene": "COX6A1 (GeneID 1337)", "robust z-score, replicate 1": -1.33, "robust z-score, replicate 2": -1.55, "robust z-score, replicate 3": -1.56}
{"gene": "LINC02667 (GeneID 728327)", "robust z-score, replicate 1": 0.329, "robust z-score, replicate 2": 0.235, "robust z-score, replicate 3": -0.476}
{"gene": "CSNK2B (GeneID 1460)", "robust z-score, replicate 1": -0.883, "robust z-score, replicate 2": 0.0165, "robust z-score, replicate 3": -0.619}
{"gene": "SH2D5 (GeneID 400745)", "robust z-score, replicate 1": 0.772, "robust z-score, replicate 2": 1.03, "robust z-score, replicate 3": 0.809}
{"gene": "GTF2E1 (GeneID 2960)", "robust z-score, replicate 1": 0.429, "robust z-score, replicate 2": 0.44, "robust z-score, replicate 3": 0.302}
{"gene": "KLRC1 (GeneID 3821)", "robust z-score, replicate 1": 0.552, "robust z-score, replicate 2": 0.28, "robust z-score, replicate 3": 1.27}
{"gene": "ZNF335 (GeneID 63925)", "robust z-score, replicate 1": -0.186, "robust z-score, replicate 2": -0.331, "robust z-score, replicate 3": -0.404}
{"gene": "RPL34 (GeneID 6164)", "robust z-score, replicate 1": -1.13, "robust z-score, replicate 2": -0.94, "robust z-score, replicate 3": -1.53}
